No constants are given. Whether binding was seen depends on the method and setting. Binding seen in cells or lysates may run through a third protein. Some results given as binding are weak or reduced against the parent protein; the word gives no strength.
Assays:
Assay in all cases: co-IP; HUVECs transfected with a tagged plasmid, stimulated with PBS or PA for 48 h, lysed in co-IP buffer with protease inhibitors; Flag-tagged or His-tagged magnetic beads incubated with the lysates at 4°C overnight, washed with PBST three times; western blotting
[1] = biological target: Flag-tagged P300/CBP-Associated Factor (PCAF) (UniProt Q92831)
[2] = biological target: Flag-tagged Yes1 Associated Transcriptional Regulator (YAP) (UniProt P46937)
His-tagged MDM2 = His-tagged MDM2 (UniProt Q00987)

Sequences of proteins named here, by UniProt entry; tags and fusion partners are left off.
UniProt Q92831: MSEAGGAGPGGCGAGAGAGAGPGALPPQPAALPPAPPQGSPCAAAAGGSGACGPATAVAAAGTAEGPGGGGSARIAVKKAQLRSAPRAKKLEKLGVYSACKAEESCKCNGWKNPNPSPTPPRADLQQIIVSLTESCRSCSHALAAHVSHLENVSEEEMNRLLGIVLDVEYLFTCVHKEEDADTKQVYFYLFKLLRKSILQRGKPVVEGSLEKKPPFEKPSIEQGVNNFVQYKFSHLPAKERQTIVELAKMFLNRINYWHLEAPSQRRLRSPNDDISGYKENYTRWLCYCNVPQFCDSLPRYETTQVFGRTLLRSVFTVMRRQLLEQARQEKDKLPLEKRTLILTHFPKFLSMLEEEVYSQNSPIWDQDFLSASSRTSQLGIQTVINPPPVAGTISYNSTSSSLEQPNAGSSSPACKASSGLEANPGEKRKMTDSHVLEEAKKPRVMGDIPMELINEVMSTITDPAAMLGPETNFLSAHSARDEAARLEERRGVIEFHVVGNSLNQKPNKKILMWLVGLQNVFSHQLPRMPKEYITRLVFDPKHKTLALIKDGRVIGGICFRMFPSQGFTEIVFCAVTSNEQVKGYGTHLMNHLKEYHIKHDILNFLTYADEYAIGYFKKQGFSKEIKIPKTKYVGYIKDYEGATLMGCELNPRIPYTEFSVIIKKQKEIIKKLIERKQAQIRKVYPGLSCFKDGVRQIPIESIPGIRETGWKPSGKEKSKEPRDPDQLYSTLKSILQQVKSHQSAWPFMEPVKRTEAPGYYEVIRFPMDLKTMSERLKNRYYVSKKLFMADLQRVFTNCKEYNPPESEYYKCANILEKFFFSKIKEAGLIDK
UniProt P46937: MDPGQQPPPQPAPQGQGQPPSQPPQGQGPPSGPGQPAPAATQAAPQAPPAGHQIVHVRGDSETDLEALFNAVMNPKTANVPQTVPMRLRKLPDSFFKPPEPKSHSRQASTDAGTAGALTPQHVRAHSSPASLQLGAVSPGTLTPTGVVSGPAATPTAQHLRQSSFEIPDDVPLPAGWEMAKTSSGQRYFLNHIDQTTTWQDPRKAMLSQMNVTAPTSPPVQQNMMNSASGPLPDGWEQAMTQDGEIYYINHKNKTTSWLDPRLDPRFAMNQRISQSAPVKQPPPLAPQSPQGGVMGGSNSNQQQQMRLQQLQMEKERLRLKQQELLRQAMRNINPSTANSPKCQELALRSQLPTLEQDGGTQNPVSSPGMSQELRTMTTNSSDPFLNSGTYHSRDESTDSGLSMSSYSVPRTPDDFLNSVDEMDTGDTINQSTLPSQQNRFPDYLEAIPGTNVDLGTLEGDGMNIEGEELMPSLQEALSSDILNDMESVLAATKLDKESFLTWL
UniProt Q00987: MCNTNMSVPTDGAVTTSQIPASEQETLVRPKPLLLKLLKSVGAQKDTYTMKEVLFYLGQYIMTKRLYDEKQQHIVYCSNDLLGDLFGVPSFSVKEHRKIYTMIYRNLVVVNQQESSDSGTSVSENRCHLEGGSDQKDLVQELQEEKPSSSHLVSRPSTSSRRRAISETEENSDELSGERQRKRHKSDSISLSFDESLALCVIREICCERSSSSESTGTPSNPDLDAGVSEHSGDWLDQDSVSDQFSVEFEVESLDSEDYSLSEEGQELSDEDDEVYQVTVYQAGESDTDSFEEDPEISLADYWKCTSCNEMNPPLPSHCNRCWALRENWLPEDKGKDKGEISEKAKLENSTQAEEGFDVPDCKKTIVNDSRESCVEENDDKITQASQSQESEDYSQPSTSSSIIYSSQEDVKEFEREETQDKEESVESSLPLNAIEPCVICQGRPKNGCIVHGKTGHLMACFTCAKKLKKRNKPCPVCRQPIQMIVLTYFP
UniProt Q9GZV5: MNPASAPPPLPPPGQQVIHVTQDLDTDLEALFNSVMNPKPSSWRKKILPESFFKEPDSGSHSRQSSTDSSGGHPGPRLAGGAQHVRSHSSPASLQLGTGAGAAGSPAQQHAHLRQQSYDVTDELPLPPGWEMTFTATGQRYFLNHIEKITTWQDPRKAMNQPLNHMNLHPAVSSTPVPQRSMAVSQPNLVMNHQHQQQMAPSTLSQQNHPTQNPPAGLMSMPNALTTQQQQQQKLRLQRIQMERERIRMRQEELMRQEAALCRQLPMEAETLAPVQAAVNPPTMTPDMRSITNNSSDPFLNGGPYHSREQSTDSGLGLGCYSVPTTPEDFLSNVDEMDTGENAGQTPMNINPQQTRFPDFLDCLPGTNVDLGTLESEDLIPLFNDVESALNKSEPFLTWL

Substance | binding [1] | binding [2] | binding (His-tagged MDM2)
MDM2, endogenous in HUVECs (from UniProt Q00987 1-491) | binds |  | 
P300/CBP-Associated Factor (PCAF), endogenous in HUVECs (from UniProt Q92831 1-832) |  | binds | binds
TAZ (also known as WWTR1), endogenous in HUVECs (from UniProt Q9GZV5 1-400) | binds |  | 
Yes1 Associated Transcriptional Regulator (YAP), endogenous in HUVECs (from UniProt P46937 1-504) | binds |  | 
